The text below walks through data of publication PMC11566155.

By UniProt entry, the sequences of proteins in these tests, tags left out. Residues count along the entry.
UniProt O55033: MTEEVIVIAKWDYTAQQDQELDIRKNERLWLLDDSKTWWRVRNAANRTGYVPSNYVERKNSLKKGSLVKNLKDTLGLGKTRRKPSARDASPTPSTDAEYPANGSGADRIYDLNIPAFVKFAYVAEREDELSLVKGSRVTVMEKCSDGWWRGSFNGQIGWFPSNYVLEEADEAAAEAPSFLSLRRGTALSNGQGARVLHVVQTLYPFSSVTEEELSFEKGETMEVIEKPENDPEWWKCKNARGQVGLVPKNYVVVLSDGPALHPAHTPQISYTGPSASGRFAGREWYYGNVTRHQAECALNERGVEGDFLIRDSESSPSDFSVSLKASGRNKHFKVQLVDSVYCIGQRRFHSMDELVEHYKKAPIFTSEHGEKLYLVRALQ
UniProt Q03137, residues 20-986: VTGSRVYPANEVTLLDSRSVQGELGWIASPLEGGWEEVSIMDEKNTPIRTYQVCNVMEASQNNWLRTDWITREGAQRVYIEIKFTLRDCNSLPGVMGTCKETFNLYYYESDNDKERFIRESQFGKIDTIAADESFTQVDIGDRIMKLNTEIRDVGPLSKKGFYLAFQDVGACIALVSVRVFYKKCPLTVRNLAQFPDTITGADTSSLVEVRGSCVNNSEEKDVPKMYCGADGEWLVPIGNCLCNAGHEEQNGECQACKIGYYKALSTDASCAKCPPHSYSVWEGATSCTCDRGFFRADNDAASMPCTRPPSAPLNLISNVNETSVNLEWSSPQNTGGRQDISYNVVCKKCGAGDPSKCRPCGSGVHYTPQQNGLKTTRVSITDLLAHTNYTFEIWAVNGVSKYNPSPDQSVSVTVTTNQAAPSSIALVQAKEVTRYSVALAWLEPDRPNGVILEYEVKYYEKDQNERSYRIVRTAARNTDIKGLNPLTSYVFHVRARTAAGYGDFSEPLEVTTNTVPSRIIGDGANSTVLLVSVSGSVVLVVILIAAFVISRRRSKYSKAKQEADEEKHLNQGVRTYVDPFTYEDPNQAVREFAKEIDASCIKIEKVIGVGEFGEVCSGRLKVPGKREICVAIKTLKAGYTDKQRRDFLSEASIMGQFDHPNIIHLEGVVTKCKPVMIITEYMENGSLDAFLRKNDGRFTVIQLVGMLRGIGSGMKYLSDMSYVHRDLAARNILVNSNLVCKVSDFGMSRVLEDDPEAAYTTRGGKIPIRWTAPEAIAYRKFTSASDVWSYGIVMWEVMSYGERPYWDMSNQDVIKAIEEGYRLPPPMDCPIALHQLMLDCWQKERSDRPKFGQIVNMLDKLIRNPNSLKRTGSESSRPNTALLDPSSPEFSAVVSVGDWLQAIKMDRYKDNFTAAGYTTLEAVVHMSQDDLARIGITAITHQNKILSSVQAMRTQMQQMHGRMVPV
UniProt Q9QUI0: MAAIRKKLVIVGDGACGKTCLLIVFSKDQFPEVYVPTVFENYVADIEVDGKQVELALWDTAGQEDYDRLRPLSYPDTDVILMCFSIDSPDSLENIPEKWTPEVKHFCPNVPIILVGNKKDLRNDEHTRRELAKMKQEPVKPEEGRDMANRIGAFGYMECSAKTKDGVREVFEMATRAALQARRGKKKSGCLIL

No constants are given. Whether binding was seen depends on the method and setting. In cells and extracts the contact can be indirect. Some results given as binding are weak or reduced against the parent protein; the word gives no strength.

The target of assay [1] is Cytoplasmic protein NCK2 (mouse (endogenous in C57BL/6J tissue and primary neurons)) (UniProt O55033). Kind of assay: co-IP; tissue lysates of C57BL/6J mice incubated with NCK2 antibody or IgG control; Western blot with NCK2, EphA4 and Rho A antibodies. In general terms: In western blotting, separated proteins are transferred to a membrane and probed.
Assay [2] shares this target. Kind of assay: co-IP; cell lysates of primary neurons from Snac-/- (KO) mice or WT littermates immunoprecipitated with anti-NCK2 antibodies; Western blot with EphA4 and Rho A antibodies.

On to “EphA4 (from UniProt Q03137 20-986) (receptor)”, for which the binding result in assay [1] and in assay [2] was “binds” each time.
For the substance Rho A (from UniProt Q9QUI0 1-193), the binding result in assay [1] and in assay [2] was “binds” each time.
